PubChem BioAssay AID1671195 | Yale University | 2021

Test: 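Genes whose knockdown alters LDL uptake in liver cancer cells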 (primary screen)
Cells: human Huh7 hepatoma cells
Reagents: siRNA pool against human genes, 18 nM
Duration: about 2 to 2.5 days of knockdown, then 8 h LDL uptake
Challenge: DiI-labelled LDL at 30 µg/ml for 8 h, in lipoprotein-deficient serum medium
Measured: 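Fluorescent LDL signal imaged in cells, scaled to the plate median, robust z-score for each replicate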
Reading the numbers: robust z-score: higher = more LDL uptake after knockdown
Call rule: 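a gene counts as active if at least two replicate z-scores exceed ±2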
Here is a random part of about 22,000 reagents tested. About 1,510 of them (6.9%) were called active. 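Active includes knockdowns raising or lowering LDL uptake; positive z-scores mean more uptake, negative mean less.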 A number with no mark means an inactive call.

| target gene | robust z-score, replicate 1 | robust z-score, replicate 2 | robust z-score, replicate 3 |
| --- | --- | --- | --- |
| MIER1 (GeneID 57708) | -0.236 | 0.049 | -0.0647 |
| ZNF43 (GeneID 7594) | -1.75 | -1.6 | -1.9 |
| PIAS3 (GeneID 10401) | 1.05 | 2.46 | 0.427 |
| MRPL35 (GeneID 51318) | 1.61 | -0.211 | -0.102 |
| ZNF888 (GeneID 388559) | -0.634 | -0.32 | 0.56 |
| MRC1 (GeneID 4360) | 0.608 | 0.779 | 0.406 |
| LOC440494 (retired record) (GeneID 440494) | -0.326 | 0.182 | 0.114 |
| VPS8 (GeneID 23355) | 2.04 | 0.283 | 0.376 |
| FANCD2OS (GeneID 115795) | 0.295 | 1.22 | 1.77 |
| CPNE9 (GeneID 151835) | -0.153 | 0.943 | -0.14 |
| EDA (GeneID 1896) | -1.02 | 1.28 | -0.379 |
| ANK3 (GeneID 288) | -0.115 | 0.327 | 0.908 |
| SCGB1A1 (GeneID 7356) | 1.04 | 0.451 | 0.506 |
| EFR3B (GeneID 22979) | -1.12 | -0.266 | -1.71 |
| ALAS2 (GeneID 212) | 0.694 | 0.564 | 0.302 |
| TTC4 (GeneID 7268) | 1.17 | -0.97 | -0.144 |
| STX3 (GeneID 6809) | 2.75 (active) | 1.39 | 1.93 |
| KIAA1210 (GeneID 57481) | -0.995 (active) | -1.93 | -2.15 |
| SLC25A22 (GeneID 79751) | 0.452 | -1.69 | -3.03 |
| LYVE1 (GeneID 10894) | -1.38 | -0.9 | -1.76 |
| ZNF763 (GeneID 284390) | 0.365 | 0.494 | 0.361 |
| CARD19 (GeneID 84270) | -0.329 | -0.556 | -1.26 |
| USP41P (GeneID 373856) | -1.17 | -1.45 | -0.663 |
| TM2D3 (GeneID 80213) | -1.36 | -0.645 | -0.726 |
| SH3BP4 (GeneID 23677) | -1.9 | -1.16 | -0.299 |
| NFATC2 (GeneID 4773) | 0.359 | 0.285 | 0.188 |
| DHRS7 (GeneID 51635) | -1.75 | -1.86 | -1.96 |
| RIMBP2 (GeneID 23504) | -1.72 | -1.23 | -1.07 |

A portion of the results above, for reference:
| target gene | robust z-score, replicate 1 | robust z-score, replicate 2 | robust z-score, replicate 3 |
| --- | --- | --- | --- |
| SCGB1A1 (GeneID 7356) | 1.04 | 0.451 | 0.506 |
| EFR3B (GeneID 22979) | -1.12 | -0.266 | -1.71 |
| ALAS2 (GeneID 212) | 0.694 | 0.564 | 0.302 |
